The other results are listed elsewhere or left out.
What follows are sequences tested against T1, OsSMF1 (Oryza sativa, UniProt Q6ZLB0 1-436) (assay: protein-binding microarray (RPBM); PBS, 2% BSA, 51.3 ng/ul salmon testes DNA, 50 uM zinc acetate, 200 nM TF, 25 C, 1 h; high values mean tight binding). Conditions: protein: recombinant; tags: N-terminal polyhistidine and DsRed monomer fusion (pET32a); chain copies: 2; label: CyDye5-dUTP incorporated in the synthesized complementary strand; 3' TTTTT single-stranded linker to array surface; dsDNA, one strand shown.
T1 sequence: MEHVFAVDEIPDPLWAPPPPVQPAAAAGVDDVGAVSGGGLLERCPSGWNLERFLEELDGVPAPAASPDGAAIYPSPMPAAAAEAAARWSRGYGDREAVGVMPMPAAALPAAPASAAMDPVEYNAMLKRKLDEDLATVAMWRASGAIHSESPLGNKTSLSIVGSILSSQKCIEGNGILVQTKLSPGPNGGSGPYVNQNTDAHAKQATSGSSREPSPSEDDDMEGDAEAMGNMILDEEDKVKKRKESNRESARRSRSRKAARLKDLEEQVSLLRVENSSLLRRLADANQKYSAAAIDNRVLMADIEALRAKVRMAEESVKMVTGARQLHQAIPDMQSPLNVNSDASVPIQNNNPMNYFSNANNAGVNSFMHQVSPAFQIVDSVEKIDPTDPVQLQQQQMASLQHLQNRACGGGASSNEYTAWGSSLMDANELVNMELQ
How it was run: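 Per-feature fluorescence intensity (arbitrary units), read on an Axon 4000B scanner, is the binding signal. Transcription factors carrying an N-terminal polyhistidine tag and DsRed fusion were expressed in E. coli BL21-CodonPlus and purified on Ni–NTA. A custom Agilent array, made double-stranded by primer extension with Cy5-dUTP and blocked with 2% BSA, was incubated with 200 nM protein in PBS, 2% BSA, salmon testes DNA and 50 µM zinc acetate at 25 °C for 1 h and then washed.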

Sequence | binding signal
AAACTTCTGAAATGGTTTCTGCAACAAGCTGACATGTACCCGGAGTCACCTAGTGCAG | 5710 fluorescence intensity (a.u.)
TCCGCCGTCGCCGCTCCGTCCATCGCCCGCCGTCACCGCCCGGAGTCACCTAGTGCAG | 4040 fluorescence intensity (a.u.)
CCATGCATCCCATCAAACCGGAAACAGATCCTCTGACGTGCGGAGTCACCTAGTGCAG | 3630 fluorescence intensity (a.u.)
TCCCCTCGCGGCGAACGCGCGCGCGCAACGAGAAGCCAAGCGGAGTCACCTAGTGCAG | 3200 fluorescence intensity (a.u.)
GCAAACACGCACCCTCCCAACAGACGCCTCCTCCCCTCCCCGGAGTCACCTAGTGCAG | 28400 fluorescence intensity (a.u.)
CGGTGAAACAACCACCGAGTTGATCTACTGAAATGTAGTGCGGAGTCACCTAGTGCAG | 3750 fluorescence intensity (a.u.)
TTTTATAAATTCGAGCGTGTGCGGGTTTCGTTTTCTCACTCGGAGTCACCTAGTGCAG | 3290 fluorescence intensity (a.u.)
GCCTCCAAATAATTCGTTCTCGTGTAGTCGTCAGCTACGTCGGAGTCACCTAGTGCAG | 5350 fluorescence intensity (a.u.)
CGAACCGTCGCGCCACACGTGGCCCACCACAACCACTAACCGGAGTCACCTAGTGCAG | 6630 fluorescence intensity (a.u.)
AAATTCCACGTGCCACATATTTCGTTCATTTGAGTTTATTCGGAGTCACCTAGTGCAG | 8820 fluorescence intensity (a.u.)
CCACATTAATACGCATGGAATTACACGTGTACGAGTAGGCCGGAGTCACCTAGTGCAG | 10200 fluorescence intensity (a.u.)
AAAGCTACGAGTTGTACGTGGCCTAAAAGGCTCAACTATCCGGAGTCACCTAGTGCAG | 3190 fluorescence intensity (a.u.)
CTACTATACCACAGTATATTATCTTTTGGGGTTTGAAAGTCGGAGTCACCTAGTGCAG | 16900 fluorescence intensity (a.u.)
TCCTCCCCAACATACTAGGAAGGAGCTTTGGTTTGGTTCGCGGAGTCACCTAGTGCAG | 9120 fluorescence intensity (a.u.)
GCATGACTCGGTCGGGTGGCTAGTGTGGATCTAGATCTGGCGGAGTCACCTAGTGCAG | 29400 fluorescence intensity (a.u.)
TCCAAATGAGTCAAATTTAAGATCTGCGGAGGCACCTTCCCGGAGTCACCTAGTGCAG | 3480 fluorescence intensity (a.u.)
ACACACTAACACACCTTACTACTACAAGCTGCAGCTGGCACGGAGTCACCTAGTGCAG | 3510 fluorescence intensity (a.u.)
CCTGAGATGGAGGCCGATCCTGTCATCATCGACACCGATGCGGAGTCACCTAGTGCAG | 4230 fluorescence intensity (a.u.)
TGACCTAGCTAGCTACCTTTTCCCTCTTCCATCACATATACGGAGTCACCTAGTGCAG | 3800 fluorescence intensity (a.u.)
AACCTTCGTGATGTGGACAGATCATGGGCGAGTACGGTCGCGGAGTCACCTAGTGCAG | 6120 fluorescence intensity (a.u.)
AATATAAGTGAATCTTCTCCGATGATGACGTATGAGGTGACGGAGTCACCTAGTGCAG | 7220 fluorescence intensity (a.u.)
ATCAATTTATCACCCGCTGACTCATCTTTATTGTATCTGCCGGAGTCACCTAGTGCAG | 24300 fluorescence intensity (a.u.)
CCAACCCTGACAGACAAACAAGCGGAGTATGAGCCGTCGGCGGAGTCACCTAGTGCAG | 4110 fluorescence intensity (a.u.)
CCCCGGCCGCCGCACGTGGCCACAGCTCAGCACACGTACGCGGAGTCACCTAGTGCAG | 8880 fluorescence intensity (a.u.)
GAAACCAATCCACACAAACAACCACCTGATAGCTAAGCTACGGAGTCACCTAGTGCAG | 21300 fluorescence intensity (a.u.)
GATAATTAACAGTACATCTTGATCCGGACTGGCCGGCCTTCGGAGTCACCTAGTGCAG | 4560 fluorescence intensity (a.u.)
AGGTGTCTTCTCAAACATCACGCTGGAATCCTTGGTTGGGCGGAGTCACCTAGTGCAG | 3270 fluorescence intensity (a.u.)

Quoted from the listing.
Under binding signal, AAATTCCACGTGCCACATATTTCGTTCATTTGAGTTTATTCGGAGTCACCTAGTGCAG reads 8820 fluorescence intensity (a.u.)
Under binding signal, CCATGCATCCCATCAAACCGGAAACAGATCCTCTGACGTGCGGAGTCACCTAGTGCAG reads 3630 fluorescence intensity (a.u.)
Under binding signal, CCTGAGATGGAGGCCGATCCTGTCATCATCGACACCGATGCGGAGTCACCTAGTGCAG reads 4230 fluorescence intensity (a.u.)
Under binding signal, TCCGCCGTCGCCGCTCCGTCCATCGCCCGCCGTCACCGCCCGGAGTCACCTAGTGCAG reads 4040 fluorescence intensity (a.u.)

Next results:

Sequence | binding signal
GACAATGCAATCTTACTCCTACTTGCTGGTTATGAGACATCGGAGTCACCTAGTGCAG | 3660 fluorescence intensity (a.u.)
ACCTCGCACACGTGGCGCCAACGTGGCAATCTAACCAGCACGGAGTCACCTAGTGCAG | 22700 fluorescence intensity (a.u.)
TCTTTCTCTTTCCTCATTTATTCACTTGCCACATCATTTTCGGAGTCACCTAGTGCAG | 6190 fluorescence intensity (a.u.)
CCTCTCAGTCTCAACCCTGTGTGTTGGTGTTTTCTGTCTTCGGAGTCACCTAGTGCAG | 3280 fluorescence intensity (a.u.)
AAGAAAGACGTGCAGTGACAATGATGTCATCATATAGGATCGGAGTCACCTAGTGCAG | 6680 fluorescence intensity (a.u.)
GATATTAATATTATAGTATACGTGGTTGAGAGGTAACTATCGGAGTCACCTAGTGCAG | 4840 fluorescence intensity (a.u.)
GTGGCCACGTGACATTGGCAAGGAGAGGGTAGTGGCCAGTCGGAGTCACCTAGTGCAG | 4030 fluorescence intensity (a.u.)
GATAATTTTCCCGCTAGGCGCCACGACGGAACGGGCGCTACGGAGTCACCTAGTGCAG | 4650 fluorescence intensity (a.u.)
GGTGGAAGAAGGGAAGGATAGATGATGTCATGTGGACCTCCGGAGTCACCTAGTGCAG | 6380 fluorescence intensity (a.u.)
AAACTCTCTTCTGCATTGCACAACTAGTCACATCGAGTCACGGAGTCACCTAGTGCAG | 3620 fluorescence intensity (a.u.)
ATACTATGTTAATTTGTCTGTGTCCTAATGACGCACCATACGGAGTCACCTAGTGCAG | 4820 fluorescence intensity (a.u.)
TTATTGGTGGATGCCTCTGAGTCGGATGTGGGTCGTACAACGGAGTCACCTAGTGCAG | 3660 fluorescence intensity (a.u.)
GCATAGGGTTGCGGGAGATCTAGAGGTTGGAGAACACCGCCGGAGTCACCTAGTGCAG | 13000 fluorescence intensity (a.u.)
GCATGGCGATGGTTTGACGAACGTGTCAAACCCCAAATCCCGGAGTCACCTAGTGCAG | 3740 fluorescence intensity (a.u.)
AATAATTTATGAATAAAACTTTTATATACGTGTCCTTAGCCGGAGTCACCTAGTGCAG | 6120 fluorescence intensity (a.u.)
CAGAGTGGGCCCACATGTCAGTGACTCAAAGCCATGTGAACGGAGTCACCTAGTGCAG | 3760 fluorescence intensity (a.u.)
TCTCCACCTGCGTCCTCGTCATCCTCCCCTAGACAGACAACGGAGTCACCTAGTGCAG | 6080 fluorescence intensity (a.u.)
CCAAAATCAGATATCTTAGGATTCATATCGATGTCCAACACGGAGTCACCTAGTGCAG | 19200 fluorescence intensity (a.u.)
TGAAATTTGAACCAAGTAATCAACCACGTGTTTGCCCGATCGGAGTCACCTAGTGCAG | 3840 fluorescence intensity (a.u.)
TGCTTTGCATCTGCACACGTAGCCCTCTCCCATGAACCTGCGGAGTCACCTAGTGCAG | 4520 fluorescence intensity (a.u.)
TTTGATGATGTGGCGCATCCTGGTACCAGAAAGCTTGTTGCGGAGTCACCTAGTGCAG | 10000 fluorescence intensity (a.u.)
TCCAAACTTGCCAGACGACCAGGATGACTATCGCATTTCCCGGAGTCACCTAGTGCAG | 22000 fluorescence intensity (a.u.)
ATTTAGCAGATGAGATGAGTGACATAAGCAGATATCTCCACGGAGTCACCTAGTGCAG | 15200 fluorescence intensity (a.u.)
CTAACTACTGACGCAGGCATCTATTTGTTAAATTGCATTCCGGAGTCACCTAGTGCAG | 4350 fluorescence intensity (a.u.)
GTCTACCTCTTCCAGGACAGGTGGAACCACGTCGTGCGGCCGGAGTCACCTAGTGCAG | 6510 fluorescence intensity (a.u.)
GTACGCCACTGGCCACGTAACGTAACGTGCCCGTCCGCTTCGGAGTCACCTAGTGCAG | 22500 fluorescence intensity (a.u.)
TGGAAGCGAGAGAGAGGGAGGGAGGAGGGAGGCAATTGGTCGGAGTCACCTAGTGCAG | 3200 fluorescence intensity (a.u.)
